Data as given in publication PMC10410066.
Results are given in words; binding and its absence hold for the method and conditions named. For some assays here: In cells and extracts the contact can be indirect. Some entries that bind do so weakly or less than the wild type. Tags and fused reporters may be left off the sequences shown.

Amino acid sequences for entries named in this document (tags omitted).
UniProt P67775: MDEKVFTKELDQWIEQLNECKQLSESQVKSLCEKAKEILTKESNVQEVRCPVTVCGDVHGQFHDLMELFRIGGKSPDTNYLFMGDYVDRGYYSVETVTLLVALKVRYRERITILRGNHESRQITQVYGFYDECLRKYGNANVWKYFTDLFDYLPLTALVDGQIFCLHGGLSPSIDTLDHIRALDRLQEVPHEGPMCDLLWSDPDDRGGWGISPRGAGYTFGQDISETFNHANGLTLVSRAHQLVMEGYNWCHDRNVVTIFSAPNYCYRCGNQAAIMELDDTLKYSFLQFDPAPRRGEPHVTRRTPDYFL

T1: inhibitor of nuclear factor kappa B kinase subunit beta (IKBKB), FLAG-tagged (UniProt O14920)
T1 sequence: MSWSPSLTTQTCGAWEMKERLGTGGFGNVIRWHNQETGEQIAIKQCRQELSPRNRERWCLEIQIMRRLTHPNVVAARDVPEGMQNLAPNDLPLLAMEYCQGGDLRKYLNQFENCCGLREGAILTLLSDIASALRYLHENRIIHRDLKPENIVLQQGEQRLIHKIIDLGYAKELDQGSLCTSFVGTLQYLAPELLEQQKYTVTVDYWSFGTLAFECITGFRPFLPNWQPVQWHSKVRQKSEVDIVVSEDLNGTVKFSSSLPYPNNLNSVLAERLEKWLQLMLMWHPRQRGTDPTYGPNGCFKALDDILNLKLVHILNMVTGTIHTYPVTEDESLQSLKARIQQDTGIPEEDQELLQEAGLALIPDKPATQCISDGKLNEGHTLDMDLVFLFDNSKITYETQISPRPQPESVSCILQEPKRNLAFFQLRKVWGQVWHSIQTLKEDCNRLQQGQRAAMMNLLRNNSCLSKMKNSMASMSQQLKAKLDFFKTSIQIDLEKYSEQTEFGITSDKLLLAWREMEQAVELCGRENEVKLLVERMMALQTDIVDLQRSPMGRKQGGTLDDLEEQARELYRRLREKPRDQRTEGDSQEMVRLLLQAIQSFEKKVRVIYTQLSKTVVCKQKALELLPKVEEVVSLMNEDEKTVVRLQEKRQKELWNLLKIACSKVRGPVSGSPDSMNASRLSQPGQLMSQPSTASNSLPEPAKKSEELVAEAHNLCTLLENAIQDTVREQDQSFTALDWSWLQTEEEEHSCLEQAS


Columns and labels:
[1] = target: T1, inhibitor of nuclear factor kappa B kinase subunit beta (IKBKB), FLAG-tagged; assay: co-IP; lysates of HEK293T cells overexpressing IKBKB-FLAG; anti-FLAG (mouse) antibody on Dynabeads Protein G, unrelated anti-GFAP antibody as mock; blot with anti-FLAG and anti-PP2A
[2] = target: protein phosphatase 2A (PP2A), endogenous (human (endogenous in HEK293T)) (UniProt P67775); assay: ELISA; anti-PP2A as capture antibody on the plate, anti-FLAG-D2 as detection antibody; HEK293T lysates transfected with or without IKBKB-FLAG; 1 h at RT; read on the Erenna Immunoassay System

binding [1] | binding [2] | Molecule
binds | – | protein phosphatase 2A (PP2A), endogenous (from UniProt P67775 1-309) (enzyme)
– | binds | inhibitor of nuclear factor kappa B kinase subunit beta (IKBKB), FLAG-tagged (enzyme, UniProt O14920 1-756) MSWSPSLTTQTCGAWEMKERLGTGGFGNVIRWHNQETGEQIAIKQCRQELSPRNRERWCLEIQIMRRLTHPNVVAARDVPEGMQNLAPNDLPLLAMEYCQGGDLRKYLNQFENCCGLREGAILTLLSDIASALRYLHENRIIHRDLKPENIVLQQGEQRLIHKIIDLGYAKELDQGSLCTSFVGTLQYLAPELLEQQKYTVTVDYWSFGTLAFECITGFRPFLPNWQPVQWHSKVRQKSEVDIVVSEDLNGTVKFSSSLPYPNNLNSVLAERLEKWLQLMLMWHPRQRGTDPTYGPNGCFKALDDILNLKLVHILNMVTGTIHTYPVTEDESLQSLKARIQQDTGIPEEDQELLQEAGLALIPDKPATQCISDGKLNEGHTLDMDLVFLFDNSKITYETQISPRPQPESVSCILQEPKRNLAFFQLRKVWGQVWHSIQTLKEDCNRLQQGQRAAMMNLLRNNSCLSKMKNSMASMSQQLKAKLDFFKTSIQIDLEKYSEQTEFGITSDKLLLAWREMEQAVELCGRENEVKLLVERMMALQTDIVDLQRSPMGRKQGGTLDDLEEQARELYRRLREKPRDQRTEGDSQEMVRLLLQAIQSFEKKVRVIYTQLSKTVVCKQKALELLPKVEEVVSLMNEDEKTVVRLQEKRQKELWNLLKIACSKVRGPVSGSPDSMNASRLSQPGQLMSQPSTASNSLPEPAKKSEELVAEAHNLCTLLENAIQDTVREQDQSFTALDWSWLQTEEEEHSCLEQAS
